The text below walks through data of US20230056815A1.

The chains behind the UniProt entries cited, without tags or fusion partners. Residues count along the entry.
UniProt P49771, residues 27-184: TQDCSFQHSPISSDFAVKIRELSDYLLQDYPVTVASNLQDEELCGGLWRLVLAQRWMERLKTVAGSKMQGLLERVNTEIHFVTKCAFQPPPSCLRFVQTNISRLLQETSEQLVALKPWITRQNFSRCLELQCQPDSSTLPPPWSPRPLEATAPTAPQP

Assay [1] deals with human soluble FLT3L (recombinant huFLT3L) (human) (UniProt P49771). Kind of assay: endogenous soluble FLT3L in human serum; assay not described.
Assay [2] has the same target. As to the kind of experiment: competition HTRF (15 min): % of inhibition of the interaction of biotin-labeled FLT3L with FLT3-mFc; the IgG is titrated.
For assay [3] the target is unchanged. Kind of assay: Octet epitope binning: biotin-FLT3L on the avidin probe, CAT5D9 bound in Phase II. (In general: In BLI a coated tip is dipped into the sample, and binding shifts an interference pattern.)
For assay [4] the target is unchanged. As to the kind of experiment: Octet epitope binning: biotin-FLT3L on the avidin probe, CAT8 bound in Phase II, test molecule added in Phase III.
For assay [5] the target is unchanged. As to the kind of experiment: Octet on biotin-FLT3L, dissociation in buffer.
The target is the same in assay [6]. As to the kind of experiment: Octet epitope binning: biotin-FLT3L on the avidin probe, CAT5D9 bound in Phase II, test molecule added in Phase III.

These are yes or no findings as the source states them, for the method shown. Some results given as binding are weak or reduced against the parent protein; the word gives no strength.

B1: SC4017 antibody (antibody, V domains shown)
VH: QVQLVQSGAEVKKPGSSVKVSCKASGGTFSSYALSWVRQAPGQGLEWMGTRPPTSRTASYAQKFQGRVTITVDESTSTGYMELSSLRSEDTAVYYCASNDFVYGSYRFWGQGTTVTVSS
VL: NFMLTQPHSVSESPGKTVTISCTRTSGWIAGYFVQWYQQRPGSSPTTVIYEDYQRPSGVPDRFSGSIDSSSNSASLTISGLKTEDEADYYCQSYDDYRRAAFGGGTKLTVLG
B1: the binding result in assay [1] is given as “binds”.

B2: CAT5D9 antibody (IgG1 TM format) (antibody, V domains shown)
VH: QVQLVQSGAEVKKPGSSVKVSCKISGGTFSSYALSWVRQAPGQGLEWMGGIIPVFRTASYAQKFQGRVTITVDESASTGYIELSSLKSEDTATYYCASNNYVWGSYRFWGQGTTVTVSS
VL: NFMLTQPHSVSESPGKTVTISCTRTSGNIAGYFVQWYQQRPGSSPTTVIYEDYQRPSGVPDRFSGSIDRSSNSASLTISGLKPDDEADYYCQSYDDTSQGVFGAGTKVTVLG
Take B2: the binding entry in assay [2], in assay [3], in assay [4] and in assay [5] was “binds” in each case.

B3: AM40 (MEDI1116) antibody (antibody, V domains shown)
VH: QVQLVQSGAEVKKPGSSVKVSCKASGGTFSSYALSWVRQAPGQGLEWMGTRPPTSRTASYAQKFQGRVTITVDESTSTGYMELSSLRSEDTAVYYCASNDFVYGSYRFWGQGTTVTVSS
VL: NFMLTQPHSVSESPGKTVTISCTRTSGNIAGYFVQWYQQRPGSSPTTVIYEDYQRPSGVPDRFSGSIDSSSNSASLTISGLKTEDEADYYCQSYDDYRRAAFGGGTKLTVLG
For B3, the binding result in assay [1] is reported as “binds”.

B4: CAT26 antibody (IgG1 TM format) (antibody, V domains shown)
VH: EVQLLESGGGLVQPGGSLRLSCAASGFTFSSYAVSWVRQAPGKGLEWVSAISGSGGSTYYADSVKGRFTISRDNSKNTLYLQMNSLRAEDTAVYYCVKDAYGSSWYFYYFDYWGQGTMVTVSS
VL: QSVLTQPPSASGTPGQRVTISCSGSSSNIGINPVNWYQQLPGTAPKVLIYSDKYRPSGVADRFSGSKSGTSASLAISGLQSEDEADYFCAAWDDSLNGRVFGTGTKLTVL
B4: the binding entry in assay [2], in assay [6] and in assay [5] was “binds” each time.
